# Data taken from publication PMC7186176, “Structural basis of cell-surface signaling by a conserved sigma regulator in Gram-negative bacteria” (The Journal of Biological Chemistry, 2020).
# Results are given in words; binding and its absence hold for the method and conditions named. For some of these results: Binding seen in cells or lysates may run through a third protein. Some results given as binding are weak or reduced against the parent protein; the word gives no strength. Where a sequence is shown, tags or fusion partners need not be part of it.
# Experiments:
# [1] = target: T1, GST-tagged PupB NTSD (PupB 49–128) (Pseudomonas capeferrum) (UniProt P38047); experiment: pull-down; MBP-tagged PupR construct and GST-tagged PupB NTSD co-expressed in E. coli BL21(DE3)pLysS; clarified lysate split in two aliquots, on amylose resin or GSH-Sepharose, 30 min at 4 °C, washed with lysis buffer (25 mM HEPES pH 7.5, 400 mM LiCl, 10% glycerol, 2 mM DTT), eluted with maltose or GSH; Coomassie-stained SDS-PAGE
# T1 sequence: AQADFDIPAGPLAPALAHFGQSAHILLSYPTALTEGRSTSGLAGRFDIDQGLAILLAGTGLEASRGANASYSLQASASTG
# [2] = target: PupR CCSSD (PupR residues 110–324, MBP cleaved) (Pseudomonas capeferrum) (UniProt Q52209); experiment: SEC-SAXS; inline Superdex 200 Increase 10/300; 25 mM HEPES pH 7.5, 400 mM LiCl, 10% glycerol; 800 μM complex (1:1 mix, 30 min at room temperature) or 400 μM PupR CCSSD alone injected; ambient temperature; both purified
Binder,binding [1],binding [2]
"MBP-tagged PupR CCSSD (PupR residues 110–324) (domain or fragment, Pseudomonas capeferrum, UniProt Q52209 110-324, looked up, PupR, inner membrane sigma regulator of Pseudomonas capeferrum (formerly Pseudomonas putida WCS358), periplasmic CCSSD, residues 110-324; also called complete CCSSD; C-terminal cell-surface signaling domain; source: E. coli BL21(DE3)pLysS, co-expressed with GST-PupB NTSD, clarified lysate (pull-down); not shown: MBP, N-terminal, kept) QDWRADYHSRIGEQRRLTLADGTQVQLNTDSALNVAFDQQARRLRLVRGEMLITRPALADSRPLWVDTEHGRLESTLAQFNVRLHGQHTQATVYQGSVALQPALHAYPPILLGAGEQASFNQQGLLARQAVAAVAPAWSQGMLVAQGQPLAAFIEDLARYRRGHLACDPALAGLRVSGTFPLENTDKIIAAVAETLQLEVQHFTRYWVTLKPRMA",binds,
"MBP-tagged PupR CCSSD T288A (domain or fragment, UniProt Q52209 110-324) QDWRADYHSRIGEQRRLTLADGTQVQLNTDSALNVAFDQQARRLRLVRGEMLITRPALADSRPLWVDTEHGRLESTLAQFNVRLHGQHTQATVYQGSVALQPALHAYPPILLGAGEQASFNQQGLLARQAVAAVAPAWSQGMLVAQGQPLAAFIEDLARYRRGHLACDPALAGLRVSGAFPLENTDKIIAAVAETLQLEVQHFTRYWVTLKPRMA",binds,
"MBP-tagged PupR CCSSD S286A (domain or fragment, UniProt Q52209 110-324) QDWRADYHSRIGEQRRLTLADGTQVQLNTDSALNVAFDQQARRLRLVRGEMLITRPALADSRPLWVDTEHGRLESTLAQFNVRLHGQHTQATVYQGSVALQPALHAYPPILLGAGEQASFNQQGLLARQAVAAVAPAWSQGMLVAQGQPLAAFIEDLARYRRGHLACDPALAGLRVAGTFPLENTDKIIAAVAETLQLEVQHFTRYWVTLKPRMA",binds,
"PupR CCSSD (PupR residues 110–324, MBP cleaved) (domain or fragment, Pseudomonas capeferrum, 4-residue cloning artifact left after TEV cleavage; PupR, inner membrane sigma regulator of Pseudomonas capeferrum (formerly Pseudomonas putida WCS358), periplasmic CCSSD, residues 110-324; 219-residue product with the GAMG artifact; About 90% pure, some MBP contamination; also called native PupR CCSSD; not shown: MBP, N-terminal, cleaved) GAMGQDWRADYHSRIGEQRRLTLADGTQVQLNTDSALNVAFDQQARRLRLVRGEMLITRPALADSRPLWVDTEHGRLESTLAQFNVRLHGQHTQATVYQGSVALQPALHAYPPILLGAGEQASFNQQGLLARQAVAAVAPAWSQGMLVAQGQPLAAFIEDLARYRRGHLACDPALAGLRVSGTFPLENTDKIIAAVAETLQLEVQHFTRYWVTLKPRMA",,no binding (tested: 400 μM)
